Results of single-concentration screens

Chains of the proteins cited; added tags and fusions are not shown. Residues count along the entry.
UniProt A4I591, 1-473: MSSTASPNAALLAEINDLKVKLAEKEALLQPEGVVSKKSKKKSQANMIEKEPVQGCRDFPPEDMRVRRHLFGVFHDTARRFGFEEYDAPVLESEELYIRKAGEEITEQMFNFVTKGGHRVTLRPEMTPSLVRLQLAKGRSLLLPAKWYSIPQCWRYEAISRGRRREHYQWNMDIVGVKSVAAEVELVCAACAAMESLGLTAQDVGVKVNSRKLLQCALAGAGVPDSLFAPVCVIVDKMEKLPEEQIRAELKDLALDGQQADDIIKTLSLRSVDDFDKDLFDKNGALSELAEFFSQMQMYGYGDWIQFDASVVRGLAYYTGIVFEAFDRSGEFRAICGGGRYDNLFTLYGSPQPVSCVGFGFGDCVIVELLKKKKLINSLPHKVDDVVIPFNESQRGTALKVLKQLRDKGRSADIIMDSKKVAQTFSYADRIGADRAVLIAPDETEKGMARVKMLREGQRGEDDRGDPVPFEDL
UniProt I6X8D2, whole entry: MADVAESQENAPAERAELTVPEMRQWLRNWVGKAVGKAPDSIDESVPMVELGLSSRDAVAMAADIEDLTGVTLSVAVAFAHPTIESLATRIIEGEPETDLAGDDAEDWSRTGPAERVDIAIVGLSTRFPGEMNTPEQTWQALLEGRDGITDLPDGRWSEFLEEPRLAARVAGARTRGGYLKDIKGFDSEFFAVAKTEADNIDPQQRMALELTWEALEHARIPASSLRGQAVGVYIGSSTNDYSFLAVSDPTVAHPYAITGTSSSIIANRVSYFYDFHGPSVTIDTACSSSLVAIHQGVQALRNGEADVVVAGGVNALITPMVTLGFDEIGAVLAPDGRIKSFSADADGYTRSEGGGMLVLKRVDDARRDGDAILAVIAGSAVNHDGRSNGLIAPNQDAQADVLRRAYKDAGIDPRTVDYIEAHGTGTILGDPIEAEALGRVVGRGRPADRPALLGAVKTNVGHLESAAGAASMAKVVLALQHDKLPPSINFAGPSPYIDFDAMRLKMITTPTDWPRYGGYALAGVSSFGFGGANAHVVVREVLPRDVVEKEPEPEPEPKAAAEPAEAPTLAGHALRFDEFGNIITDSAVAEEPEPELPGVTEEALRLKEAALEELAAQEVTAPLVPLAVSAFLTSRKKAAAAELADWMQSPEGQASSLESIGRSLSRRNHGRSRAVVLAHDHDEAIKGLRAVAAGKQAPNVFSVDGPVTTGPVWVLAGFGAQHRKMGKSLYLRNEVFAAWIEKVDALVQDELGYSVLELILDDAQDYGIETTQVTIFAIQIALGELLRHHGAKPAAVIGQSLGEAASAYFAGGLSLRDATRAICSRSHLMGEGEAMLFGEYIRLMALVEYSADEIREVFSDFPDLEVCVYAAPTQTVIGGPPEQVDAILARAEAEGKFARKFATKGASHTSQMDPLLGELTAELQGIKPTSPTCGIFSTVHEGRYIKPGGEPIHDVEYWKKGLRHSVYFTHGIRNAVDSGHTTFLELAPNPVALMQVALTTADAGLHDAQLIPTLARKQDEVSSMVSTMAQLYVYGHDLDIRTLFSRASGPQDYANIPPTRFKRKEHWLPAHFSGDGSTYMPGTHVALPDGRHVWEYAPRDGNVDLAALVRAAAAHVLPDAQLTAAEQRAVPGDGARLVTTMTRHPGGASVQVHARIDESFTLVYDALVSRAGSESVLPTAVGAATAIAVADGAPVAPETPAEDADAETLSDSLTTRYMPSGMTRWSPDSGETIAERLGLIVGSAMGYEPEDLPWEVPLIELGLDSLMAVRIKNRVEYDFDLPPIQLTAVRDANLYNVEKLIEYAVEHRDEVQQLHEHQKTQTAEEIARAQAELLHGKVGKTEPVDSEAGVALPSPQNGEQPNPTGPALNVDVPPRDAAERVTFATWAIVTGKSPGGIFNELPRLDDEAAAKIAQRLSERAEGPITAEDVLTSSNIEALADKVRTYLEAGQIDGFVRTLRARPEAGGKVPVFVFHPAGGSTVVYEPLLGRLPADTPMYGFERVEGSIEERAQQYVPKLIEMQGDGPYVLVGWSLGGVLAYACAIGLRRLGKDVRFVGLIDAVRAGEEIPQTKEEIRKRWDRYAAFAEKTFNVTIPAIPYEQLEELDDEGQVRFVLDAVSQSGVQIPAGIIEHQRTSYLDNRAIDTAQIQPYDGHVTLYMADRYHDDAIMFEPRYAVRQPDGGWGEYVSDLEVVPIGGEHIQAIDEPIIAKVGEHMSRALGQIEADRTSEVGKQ
UniProt P9WFT3, whole entry: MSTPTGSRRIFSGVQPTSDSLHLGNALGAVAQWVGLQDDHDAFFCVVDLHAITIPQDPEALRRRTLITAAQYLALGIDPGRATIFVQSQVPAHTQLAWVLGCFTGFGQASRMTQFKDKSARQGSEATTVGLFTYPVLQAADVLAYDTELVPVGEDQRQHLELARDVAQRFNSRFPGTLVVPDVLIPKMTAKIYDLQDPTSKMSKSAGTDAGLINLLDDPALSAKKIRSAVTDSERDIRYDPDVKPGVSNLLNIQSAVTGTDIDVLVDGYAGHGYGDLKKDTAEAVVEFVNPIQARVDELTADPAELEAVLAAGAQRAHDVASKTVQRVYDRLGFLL
UniProt Q4DA54, 1-478: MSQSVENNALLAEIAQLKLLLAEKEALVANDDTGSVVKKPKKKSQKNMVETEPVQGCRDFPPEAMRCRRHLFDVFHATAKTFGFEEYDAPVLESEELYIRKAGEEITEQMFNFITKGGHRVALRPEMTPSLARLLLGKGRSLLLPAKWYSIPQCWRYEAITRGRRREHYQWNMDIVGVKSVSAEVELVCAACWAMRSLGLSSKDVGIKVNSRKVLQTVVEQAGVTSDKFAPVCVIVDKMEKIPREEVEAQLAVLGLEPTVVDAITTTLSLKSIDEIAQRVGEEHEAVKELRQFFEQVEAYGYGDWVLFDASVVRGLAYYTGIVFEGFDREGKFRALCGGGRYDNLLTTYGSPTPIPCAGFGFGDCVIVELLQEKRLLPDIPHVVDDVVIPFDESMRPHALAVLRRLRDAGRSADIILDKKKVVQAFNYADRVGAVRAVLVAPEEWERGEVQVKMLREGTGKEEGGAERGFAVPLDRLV

Source: ChEMBL document CHEMBL3988442, “University of Dundee, Small-Polar-MMV Screening Library” (2021).

LiHisRS: 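Histidine-tRNA ligase, Leishmania infantum (UniProt A4I591). Enzyme assay of histidyl-tRNA synthetase; the read-out is not stated. Compounds at 30 µM. Higher reads as stronger inhibition (inferred: compounds with an IC50 in retests scored well above the rest). The assay is labelled LdHisRS but filed under L. infantum. About 69,000 compounds were tested under these conditions; 0.6% (about 410) showed 50% or more at least once.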
Pks13 thioesterase: 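Enzyme assay of the thioesterase domain of polyketide synthase 13; the read-out is not stated. Target: Polyketide synthase Pks13, Mycobacterium tuberculosis (UniProt I6X8D2). Concentration: 30 µM. Higher reads as stronger inhibition (inferred from which compounds were picked for retests). About 67,000 compounds were tested under these conditions; 0.46% (about 300) showed 50% or more at least once.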
MtTrpRS: 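Enzyme assay of tryptophanyl-tRNA synthetase; the read-out is not stated. Target: Tryptophan-tRNA ligase, Mycobacterium tuberculosis (UniProt P9WFT3). Compounds at 10 µM. Higher most likely means stronger inhibition; the record gives no direction and few retests gave an IC50. About 65,000 compounds were tested under these conditions; 0.098% (about 64) showed 50% or more at least once.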
TcHisRS: 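Histidine-tRNA ligase, Trypanosoma cruzi CL Brener (UniProt Q4DA54). Enzyme assay of histidyl-tRNA synthetase; the read-out is not stated. Tested at 30 µM. The record gives no direction; compounds that gave an IC50 in retests scored well above the rest, so higher reads as stronger inhibition. Of about 69,000 compounds tested this way, about 31 (0.045%) reached 50% or more in at least one test.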

The filed quantity is “Percent Effect” (%). The controls that fix the scale are not given in the record; negative values are as filed. Compounds were drawn at random from those tested, without regard to their results.

{"smiles": "Cc1ccc(Oc2ncccc2CNC(=O)NC2CCCCC2)cn1", "LiHisRS": -11.48, "Pks13 thioesterase": -30.48, "MtTrpRS": -2.902, "TcHisRS": -2.326}
{"smiles": "Cc1cc(C(=O)N(C)Cc2cccs2)nc(N2CCCC2)n1", "LiHisRS": 15.52, "Pks13 thioesterase": -10.4, "MtTrpRS": -0.2591, "TcHisRS": 3.478}
{"smiles": "COCC(=O)NC[C@]12COC[C@H]1CN(Cc1ccc3c(c1)OCO3)C2", "LiHisRS": 15.84, "TcHisRS": 6.533}
{"smiles": "COC[C@@H]1CCC[C@@]12CN(C(=O)C1CCOCC1)CCO2", "LiHisRS": 5.941, "Pks13 thioesterase": -11.29, "TcHisRS": 3.518}
{"smiles": "Cc1ccccc1-c1noc(CN2CCc3nn(C)c(=O)cc3C2)n1", "LiHisRS": 103.5, "Pks13 thioesterase": 9.788, "MtTrpRS": -4.47, "TcHisRS": 9.04}
{"smiles": "Cc1cc(C)c(CNC(=O)N2CCN(c3ccccn3)CC2)c(=O)[nH]1", "LiHisRS": 12.84, "Pks13 thioesterase": -14.97, "MtTrpRS": -5.616, "TcHisRS": 6.471}
{"smiles": "Cc1c[nH]c(C2COCCN2C(=O)c2n[nH]c(=O)c3ccccc23)n1", "stereo": "stereo unspecified", "LiHisRS": 14.49, "Pks13 thioesterase": -4.77, "MtTrpRS": -8.431, "TcHisRS": 5.303}
{"smiles": "Cc1cc2cc(C(=O)N3CCN(CCO)[C@@H]4CS(=O)(=O)C[C@@H]43)ccc2o1", "LiHisRS": 13.49, "Pks13 thioesterase": 22.28, "MtTrpRS": 5.153, "TcHisRS": 10.59}
{"smiles": "O=C(c1ccncc1F)N1CCc2ncnc(N3CCOCC3)c2CC1", "LiHisRS": 20.59, "Pks13 thioesterase": -16.18, "MtTrpRS": -3.704, "TcHisRS": 3.941}
{"smiles": "O=C(CCc1ccco1)N1CCC(Nc2cccnn2)CC1", "LiHisRS": 10.71, "Pks13 thioesterase": -4.062, "MtTrpRS": -2.668, "TcHisRS": 0}
{"smiles": "CN(Cc1ccco1)Cc1cncc2c1CCN(c1ncccn1)C2", "LiHisRS": 9.434, "Pks13 thioesterase": -12.79, "MtTrpRS": 0.3148, "TcHisRS": 5.946}
{"smiles": "Cc1cc(C)cc(CN2CCC3(CC2)CC(Nc2ncccn2)CO3)c1", "stereo": "stereo unspecified", "LiHisRS": 22.22, "Pks13 thioesterase": -14.12, "MtTrpRS": 7.069, "TcHisRS": 6.748}
{"smiles": "Cc1cc(C)n(CC(=O)N2C[C@@H]3CC[C@H](C2)N(CC2CCC2)C3)c(=O)n1", "LiHisRS": 57.14, "Pks13 thioesterase": -22.68, "MtTrpRS": 4.129, "TcHisRS": -12.82}
{"smiles": "CSCCC(C)NC(=O)CCN1C(=O)CCc2cc(F)ccc21", "stereo": "stereo unspecified", "LiHisRS": 17.14, "Pks13 thioesterase": -25.2, "MtTrpRS": 1.847, "TcHisRS": 3.061}
{"smiles": "OC1(Cn2ccc3ncccc32)CCN(Cc2cccnc2)CC1", "LiHisRS": 11.46, "Pks13 thioesterase": 1.954, "TcHisRS": 6.383}
{"smiles": "Cc1ccc(CN2CCOC3(COCCN(C(C)C)C3)C2)s1", "stereo": "stereo unspecified", "LiHisRS": 0.885, "Pks13 thioesterase": 1.565, "MtTrpRS": 5.179, "TcHisRS": 2.151}
{"smiles": "CCc1cnc(N2CCC3(CCN(CC)C3=O)CC2)nc1", "LiHisRS": 15.52, "Pks13 thioesterase": -17.09, "MtTrpRS": -6.58, "TcHisRS": 6.329}
{"smiles": "CC(C)C(Sc1ccccc1)C(=O)N(C)Cc1nnc2n1CCC2", "stereo": "stereo unspecified", "LiHisRS": 4.225, "Pks13 thioesterase": 17.75, "MtTrpRS": 2.321, "TcHisRS": -0.6369}
{"smiles": "COC(=O)[C@]12CNC[C@H]1CN(Cc1nc(C)c[nH]1)C2", "LiHisRS": 8.861, "Pks13 thioesterase": -23.05, "MtTrpRS": 0.6571, "TcHisRS": 0.431}
{"smiles": "CNC(=O)c1ncn2c1CN(CCC(C)C)S(=O)(=O)c1ccccc1-2", "LiHisRS": -2.941, "Pks13 thioesterase": -18.47, "MtTrpRS": 2.222, "TcHisRS": 1.97}
{"smiles": "Cn1nc(CN2CCCC2)c2c1CN(C(=O)c1ccc[nH]1)CC2", "LiHisRS": 5.983, "Pks13 thioesterase": 5.079, "MtTrpRS": 4.443, "TcHisRS": 5.882}
{"smiles": "c1ccc(CN2CC[C@@H]3O[C@H](COCc4ccncc4)CC[C@@H]32)nc1", "LiHisRS": 10.95, "Pks13 thioesterase": -20.33, "MtTrpRS": 0, "TcHisRS": 4.918}
{"smiles": "CS(=O)(=O)NCCNC(=O)C1(c2ccc(F)cc2)CC1", "LiHisRS": 16.67, "Pks13 thioesterase": -34.13, "MtTrpRS": -1.528, "TcHisRS": 3.896}
{"smiles": "O=C(O)COc1ccc(CN2CCCC(CCc3ccccc3)C2)cc1", "stereo": "stereo unspecified", "LiHisRS": 9.79, "Pks13 thioesterase": -35.44, "MtTrpRS": 5.012, "TcHisRS": 2.488}

The last 3 entries again:

SMILES,LiHisRS,Pks13 thioesterase,MtTrpRS,TcHisRS
c1ccc(CN2CC[C@@H]3O[C@H](COCc4ccncc4)CC[C@@H]32)nc1,10.95,-20.33,0,4.918
CS(=O)(=O)NCCNC(=O)C1(c2ccc(F)cc2)CC1,16.67,-34.13,-1.528,3.896
O=C(O)COc1ccc(CN2CCCC(CCc3ccccc3)C2)cc1 (stereo unspecified),9.79,-35.44,5.012,2.488